{
  "source": "patent EP2717057A1",
  "about": "“Morphine-6-glucuronide derivatives, immunogens and immunoassay” (Cisbio Bioassays, priority 2012, dated 2014)",
  "molecular_target": "rabbit anti-M6G polyclonal antibody",
  "test": "Cross-reactivity of the competitive M6G-ELISA (M6G-HRP tracer, biotinylated antibody)",
  "assay_type": "binding",
  "data": [
    {"smiles": "CN1CC[C@]23c4c5ccc(O)c4O[C@H]2[C@@H](O)C=C[C@H]3[C@H]1C5", "note": "[morphine, Morphine]", "values": [
      {"measurement": "Kd", "setting": "approximate, calculated from Figure 1, competing compound diluted in NBCS at 1, 10, 100 or 1000 nM, one site competition model, read-out: affinity constant K", "value": 970, "unit": "nM"},
      {"measurement": "K relative to M6G (X as high as M6G)", "setting": "ratio of the compound's K to the K of M6G", "value": "more than 160 X"}
    ]}
  ]
}
